Results as given in the supplement of paper PMC12889115.
The list shows a part of the results. Values are raw readings; no control value is given beside them.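 Primary screen: polymyxin B was added at a level permeabilizing Salmonella outer membranes while sparing inner membranes. DMSO wells, both with and without polymyxin B, established maximum growth. Plate-to-plate variation meant each plate was ranked on its own, and the lowest-OD600 compounds were selected as hits.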

Tested on: Salmonella enterica serovar Typhimurium SL1344
Test: bacterial growth OD600 after 18 h with compound and polymyxin B; higher = more bacterial growth (less inhibition)
Conditions: 50 µM, Mueller-Hinton broth

SMILES	bacterial growth OD600 (polymyxin B 1 µg/mL)	bacterial growth OD600 (polymyxin B 0.75 µg/mL)
COc1cccc(CN2C[C@H]3OC(=O)N(Cc4ccc(OC)c(OC)c4)[C@H]3C2)c1	1.06	
CCOC(=O)C1(Cc2ccccc2)CCCN(C2CCCC2)C1 (centres undefined)	0.869	
COC(=O)c1ccc(-c2noc(CN(C)CCc3ccc(OC)c(OC)c3)n2)cc1	0.708	
Cc1nc(-c2ccncc2)ncc1C(C)NC(=O)c1sccc1Cl (centres undefined)	0.839	
Cc1cnc(SCCN2CCOCC2)nc1C1CCCN(C(=O)CCc2ccc3c(c2)OCO3)C1 (centres undefined)		0.907
Cc1cccc(CN2CCCC3(CCN(S(C)(=O)=O)C3)C2=O)c1 (centres undefined)	0.83	
COc1ccc(CCC(=O)Nc2ccc(-c3nc(CNC(=O)Cc4cccs4)c(C)o3)cc2)cc1		0.82
Cc1nc(C)c(C(=O)N2CCc3c(cnc(C)c3CNC(=O)CSc3ccccc3)C2)s1		0.826
CCOC(=O)N1CCN(Cc2ccc3c(c2)CN(C(=O)c2ccoc2)CCO3)CC1		0.931
